# The supplement of paper PMC8728848
# This is one part of the list.
# B1: cFel (Cyprinus carpio), P68512 (protein)
# chain: LDCTVIDGNLKQIDAGSGSVVGVNNLNETFVLIDNVFTKISGSLKHFSVGPAGQLGVNTANNIFKYQSGGFVQLAGLLKQVDAGGDQIIAGVNMYDDIYCLNMDANNKWPSSNTPWVQINGKLKYYSCGPYSCWGVNSNDQIFIMKDVSSNVCSGSGSFINIPGLLSMIEVATDGSVFGVNSQGNLYQRTGVTRSKPDGTDWISMVACPNGHKHVSFDLGVLWLVCVDGSIRKCILTD
# Columns and labels:
# Assay in all cases: glycan array binding signal (z-score within array); higher = stronger binding
# Settings in all cases: glycan notation: IUPAC condensed, linker removed
# [1] = molecular target: GlcNAc(b1-3)Gal(b1-3)GalNAc
# Outline: (§1)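 The Consortium for Functional Glycomics database supplied 3228 glycan arrays, of which those lacking an available protein sequence were dropped. The binding signal, a within-array Z-score, was averaged across arrays of the same protein sequence and across linkers. Negative scores can be read as non-binding.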
# GlcNAc(b1-3)Gal(b1-4)Glc = molecular target: GlcNAc(b1-3)Gal(b1-4)Glc
# Outline: as §1
# [2] = molecular target: GlcNAc(b1-3)Gal(b1-4)GlcNAc
# Outline: as §1
# [3] = molecular target: GlcNAc(b1-3)Gal(b1-4)GlcNAc(b1-2)Man(a1-3)[GlcNAc(b1-3)Gal(b1-4)GlcNAc(b1-2)Man(a1-6)]Man(b1-4)GlcNAc(b1-4)GlcNAc
# Outline: as §1
# [4] = molecular target: GlcNAc(b1-3)Gal(b1-4)GlcNAc(b1-2)Man(a1-3)[GlcNAc(b1-3)Gal(b1-4)GlcNAc(b1-2)Man(a1-6)]Man(b1-4)GlcNAc(b1-4)[Fuc(a1-6)]GlcNAc
# Outline: as §1
# [5] = molecular target: GlcNAc(b1-3)Gal(b1-4)GlcNAc(b1-2)[GlcNAc(b1-3)Gal(b1-4)GlcNAc(b1-6)]Man(a1-6)[GlcNAc(b1-3)Gal(b1-4)GlcNAc(b1-2)Man(a1-3)]Man(b1-4)GlcNAc(b1-4)GlcNAc
# Outline: as §1
# [6] = molecular target: GlcNAc(b1-3)Gal(b1-4)GlcNAc(b1-3)Gal(b1-4)GlcNAc
# Outline: as §1
# [7] = molecular target: GlcNAc(b1-3)Gal(b1-4)GlcNAc(b1-3)Gal(b1-4)GlcNAc(b1-2)Man(a1-3)[GlcNAc(b1-3)Gal(b1-4)GlcNAc(b1-3)Gal(b1-4)GlcNAc(b1-2)Man(a1-6)]Man(b1-4)GlcNAc(b1-4)GlcNAc
# Outline: as §1
# [8] = molecular target: GlcNAc(b1-3)Gal(b1-4)GlcNAc(b1-3)Gal(b1-4)GlcNAc(b1-2)Man(a1-3)[GlcNAc(b1-3)Gal(b1-4)GlcNAc(b1-3)Gal(b1-4)GlcNAc(b1-2)Man(a1-6)]Man(b1-4)GlcNAc(b1-4)[Fuc(a1-6)]GlcNAc
# Outline: as §1
# [9] = molecular target: GlcNAc(b1-3)Gal(b1-4)GlcNAc(b1-3)Gal(b1-4)GlcNAc(b1-2)[GlcNAc(b1-3)Gal(b1-4)GlcNAc(b1-3)Gal(b1-4)GlcNAc(b1-6)]Man(a1-6)[GlcNAc(b1-3)Gal(b1-4)GlcNAc(b1-3)Gal(b1-4)GlcNAc(b1-2)Man(a1-3)]Man(b1-4)GlcNAc(b1-4)[Fuc(a1-6)]GlcNAc
# Outline: as §1
# [10] = molecular target: GlcNAc(b1-3)Gal(b1-4)GlcNAc(b1-3)Gal(b1-4)GlcNAc(b1-3)Gal(b1-4)GlcNAc(b1-2)Man(a1-3)[GlcNAc(b1-3)Gal(b1-4)GlcNAc(b1-3)Gal(b1-4)GlcNAc(b1-3)Gal(b1-4)GlcNAc(b1-2)Man(a1-6)]Man(b1-4)GlcNAc(b1-4)GlcNAc
# Outline: as §1
# [11] = molecular target: GlcNAc(b1-3)Gal(b1-4)GlcNAc(b1-3)Gal(b1-4)GlcNAc(b1-3)Gal(b1-4)GlcNAc(b1-2)Man(a1-3)[GlcNAc(b1-3)Gal(b1-4)GlcNAc(b1-3)Gal(b1-4)GlcNAc(b1-3)Gal(b1-4)GlcNAc(b1-2)Man(a1-6)]Man(b1-4)GlcNAc(b1-4)[Fuc(a1-6)]GlcNAc
# Outline: as §1
# [12] = molecular target: GlcNAc(b1-3)Gal(b1-4)GlcNAc(b1-3)Gal(b1-4)GlcNAc(b1-3)Gal(b1-4)GlcNAc(b1-2)[GlcNAc(b1-3)Gal(b1-4)GlcNAc(b1-3)Gal(b1-4)GlcNAc(b1-3)Gal(b1-4)GlcNAc(b1-6)]Man(a1-6)[GlcNAc(b1-3)Gal(b1-4)GlcNAc(b1-3)Gal(b1-4)GlcNAc(b1-3)Gal(b1-4)GlcNAc(b1-2)Man(a1-3)]Man(b1-4)GlcNAc(b1-4)[Fuc(a1-6)]GlcNAc
# Outline: as §1
# [13] = molecular target: GlcNAc(b1-3)Gal(b1-4)GlcNAc(b1-3)Gal(b1-4)GlcNAc(b1-3)Gal(b1-4)GlcNAc(b1-3)Gal(b1-4)GlcNAc(b1-2)Man(a1-3)[GlcNAc(b1-3)Gal(b1-4)GlcNAc(b1-3)Gal(b1-4)GlcNAc(b1-3)Gal(b1-4)GlcNAc(b1-3)Gal(b1-4)GlcNAc(b1-2)Man(a1-6)]Man(b1-4)GlcNAc(b1-4)GlcNAc
# Outline: as §1
# [14] = molecular target: GlcNAc(b1-3)Gal(b1-4)GlcNAc(b1-3)Gal(b1-4)GlcNAc(b1-3)Gal(b1-4)GlcNAc(b1-3)Gal(b1-4)GlcNAc(b1-2)Man(a1-3)[GlcNAc(b1-3)Gal(b1-4)GlcNAc(b1-3)Gal(b1-4)GlcNAc(b1-3)Gal(b1-4)GlcNAc(b1-3)Gal(b1-4)GlcNAc(b1-2)Man(a1-6)]Man(b1-4)GlcNAc(b1-4)[Fuc(a1-6)]GlcNAc
# Outline: as §1
# [15] = molecular target: GlcNAc(b1-3)Gal(b1-4)GlcNAc(b1-3)Gal(b1-4)GlcNAc(b1-3)Gal(b1-4)GlcNAc(b1-3)Gal(b1-4)GlcNAc(b1-2)[GlcNAc(b1-3)Gal(b1-4)GlcNAc(b1-3)Gal(b1-4)GlcNAc(b1-3)Gal(b1-4)GlcNAc(b1-3)Gal(b1-4)GlcNAc(b1-6)]Man(a1-6)[GlcNAc(b1-3)Gal(b1-4)GlcNAc(b1-3)Gal(b1-4)GlcNAc(b1-3)Gal(b1-4)GlcNAc(b1-3)Gal(b1-4)GlcNAc(b1-2)Man(a1-3)]Man(b1-4)GlcNAc(b1-4)[Fuc(a1-6)]GlcNAc
# Outline: as §1
# [16] = molecular target: GlcNAc(b1-3)Gal(b1-4)GlcNAc(b1-3)Gal(b1-4)GlcNAc(b1-3)GalNAc
# Outline: as §1
# [17] = molecular target: GlcNAc(b1-3)Gal(b1-4)GlcNAc(b1-3)GalNAc
# Outline: as §1
# [18] = molecular target: GlcNAc(b1-3)Gal(b1-4)GlcNAc(b1-3)[GlcNAc(b1-3)Gal(b1-4)GlcNAc(b1-3)]GalNAc
# Outline: as §1
# [19] = molecular target: GlcNAc(b1-3)Gal(b1-4)GlcNAc(b1-6)[Gal(b1-3)]GalNAc
# Outline: as §1
# [20] = molecular target: GlcNAc(b1-3)Gal(b1-4)GlcNAc(b1-6)[GlcNAc(b1-3)Gal(b1-3)]GalNAc
# Outline: as §1
# [21] = molecular target: GlcNAc(b1-3)Gal(b1-4)GlcNAc(b1-6)[GlcNAc(b1-3)]Gal(b1-4)GlcNAc
# Outline: as §1
# GlcNAc(b1-3)GalNAc = molecular target: GlcNAc(b1-3)GalNAc
# Outline: as §1
# GlcNAc(b1-3)Man = molecular target: GlcNAc(b1-3)Man
# Outline: as §1
# [22] = molecular target: GlcNAc(b1-3)[GlcNAc(b1-4)][GlcNAc(b1-6)]GlcNAc
# Outline: as §1
# [23] = molecular target: GlcNAc(b1-3)[GlcNAc(b1-6)]Gal(b1-4)GlcNAc
# Outline: as §1
# [24] = molecular target: GlcNAc(b1-3)[GlcNAc(b1-6)]GalNAc
# Outline: as §1
# [25] = molecular target: GlcNAc(b1-4)Gal(b1-4)GlcNAc
# Outline: as §1
# GlcNAc(b1-4)GlcNAc = molecular target: GlcNAc(b1-4)GlcNAc
# Outline: as §1
# [26] = molecular target: GlcNAc(b1-4)GlcNAc(b1-4)GlcNAc
# Outline: as §1
# [27] = molecular target: GlcNAc(b1-4)GlcNAc(b1-4)GlcNAc(b1-4)GlcNAc(b1-4)GlcNAc
# Outline: as §1
# [28] = molecular target: GlcNAc(b1-4)GlcNAc(b1-4)GlcNAc(b1-4)GlcNAc(b1-4)GlcNAc(b1-4)GlcNAc
# Outline: as §1
# [29] = molecular target: GlcNAc(b1-4)[GlcNAc(b1-6)]GalNAc
# Outline: as §1
# [30] = molecular target: GlcNAc(b1-6)Gal(b1-4)GlcNAc
# Outline: as §1
# GlcNAc(b1-6)GalNAc = molecular target: GlcNAc(b1-6)GalNAc
# Outline: as §1
# [31] = molecular target: GlcNAc6S(b1-3)Gal(b1-4)GlcNAc
# Outline: as §1
# Kdn(a2-3)Gal(b1-3)GalNAc = molecular target: Kdn(a2-3)Gal(b1-3)GalNAc
# Outline: as §1
# Kdn(a2-3)Gal(b1-3)GlcNAc = molecular target: Kdn(a2-3)Gal(b1-3)GlcNAc
# Outline: as §1
# Kdn(a2-3)Gal(b1-4)Glc = molecular target: Kdn(a2-3)Gal(b1-4)Glc
# Outline: as §1
# Kdn(a2-3)Gal(b1-4)GlcNAc = molecular target: Kdn(a2-3)Gal(b1-4)GlcNAc
# Outline: as §1
# [32] = molecular target: Kdn(a2-3)Gal(b1-4)[Fuc(a1-3)]GlcNAc
# Outline: as §1
# Kdn(a2-6)Gal(b1-4)GlcNAc = molecular target: Kdn(a2-6)Gal(b1-4)GlcNAc
# Outline: as §1
# [33] = molecular target: Man(a1-2)Man(a1-2)Man(a1-3)Man
# Outline: as §1
# [34] = molecular target: Man(a1-2)Man(a1-2)Man(a1-6)[Man(a1-3)]Man
# Outline: as §1
# Man(a1-2)Man(a1-3)Man = molecular target: Man(a1-2)Man(a1-3)Man
# Outline: as §1
binder,measurement,setting,value
B1,glycan array binding signal (z-score),[1],1.35
same,glycan array binding signal (z-score),GlcNAc(b1-3)Gal(b1-4)Glc,-0.98
same,glycan array binding signal (z-score),[2],-0.197
same,glycan array binding signal (z-score),[3],-0.579
same,glycan array binding signal (z-score),[4],-0.543
same,glycan array binding signal (z-score),[5],0.381
same,glycan array binding signal (z-score),[6],-1.22
same,glycan array binding signal (z-score),[7],-0.105
same,glycan array binding signal (z-score),[8],-0.502
same,glycan array binding signal (z-score),[9],-0.253
same,glycan array binding signal (z-score),[10],1.23
same,glycan array binding signal (z-score),[11],-0.724
same,glycan array binding signal (z-score),[12],-1.07
same,glycan array binding signal (z-score),[13],-0.732
same,glycan array binding signal (z-score),[14],2.52
same,glycan array binding signal (z-score),[15],0.968
same,glycan array binding signal (z-score),[16],1.09
same,glycan array binding signal (z-score),[17],1.45
same,glycan array binding signal (z-score),[18],-1.53
same,glycan array binding signal (z-score),[19],1.15
same,glycan array binding signal (z-score),[20],-1.47
same,glycan array binding signal (z-score),[21],0.717
same,glycan array binding signal (z-score),GlcNAc(b1-3)GalNAc,0.09
same,glycan array binding signal (z-score),GlcNAc(b1-3)Man,3.22
same,glycan array binding signal (z-score),[22],-0.332
same,glycan array binding signal (z-score),[23],-0.455
same,glycan array binding signal (z-score),[24],0.368
same,glycan array binding signal (z-score),[25],-0.469
same,glycan array binding signal (z-score),GlcNAc(b1-4)GlcNAc,-0.102
same,glycan array binding signal (z-score),[26],-1.42
same,glycan array binding signal (z-score),[27],0.165
same,glycan array binding signal (z-score),[28],-1.45
same,glycan array binding signal (z-score),[29],-0.003
same,glycan array binding signal (z-score),[30],1.43
same,glycan array binding signal (z-score),GlcNAc(b1-6)GalNAc,-0.628
same,glycan array binding signal (z-score),[31],-0.424
same,glycan array binding signal (z-score),Kdn(a2-3)Gal(b1-3)GalNAc,1.83
same,glycan array binding signal (z-score),Kdn(a2-3)Gal(b1-3)GlcNAc,-0.939
same,glycan array binding signal (z-score),Kdn(a2-3)Gal(b1-4)Glc,1.15
same,glycan array binding signal (z-score),Kdn(a2-3)Gal(b1-4)GlcNAc,0.685
same,glycan array binding signal (z-score),[32],-1.1
same,glycan array binding signal (z-score),Kdn(a2-6)Gal(b1-4)GlcNAc,0.109
same,glycan array binding signal (z-score),[33],0.403
same,glycan array binding signal (z-score),[34],1.11
same,glycan array binding signal (z-score),Man(a1-2)Man(a1-3)Man,-0.769

# Quoted from the results shown for reference:
binder,measurement,setting,value
B1,glycan array binding signal (z-score),[18],-1.53
same,glycan array binding signal (z-score),[19],1.15
same,glycan array binding signal (z-score),[20],-1.47
same,glycan array binding signal (z-score),[21],0.717
